Measurements reported in PubChem BioAssay AID1259308 (NCATS, 2017).

Purpose: 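Knock-downs that increase output of a recombinant reporter protein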 (primary screen)
Cells: human HEK293 embryonic kidney cells stably expressing firefly luciferase (HEK-CMV-Luc2-Hygro)
Knock-down reagent: single siRNA against human genes, 0.8 pmol siRNA per well
Duration: 72 h
Detection: 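Luciferase light (ONE-Glo) measured on one replicate plate set and viability (CellTiter-Glo) on the other, scaled to a negative control siRNA, with robust z-scores and luciferase per cell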
Reading the numbers: total luciferase, z-score and total luciferase, % of control: higher = more reporter protein produced; luciferase per cell, z-score: higher = more reporter output per viable cell; viable cells, % of control: higher = more viable cells
Active means: 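An siRNA counts as active if its total luciferase robust z-score exceeds 3; genes with two or more such siRNAs out of three were retested with fresh siRNAs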
Calls: active = raised luciferase; inactive = no rise
Here is one part, drawn at random, of about 59,000 deposited reagents. In the full data, about 1,510 (2.6%) are marked active. 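Calls use total luciferase alone and ignore viability, so some active siRNAs may act by altering cell number.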 The numbers tell different reagents against one gene apart.

| Gene | reagent | total luciferase, z-score | total luciferase, % of control | luciferase per cell, z-score | viable cells, % of control | Call |
| --- | --- | --- | --- | --- | --- | --- |
| HSD17B7 | 1 | -0.35 | 74.9 | -0.648 | 99.3 | inactive |
| HSD17B7 | 2 | -2.02 | 41.7 | -1.96 | 78.1 | inactive |
| HSD17B7 | 3 | 0.45 | 90.8 | 0.0339 | 101 | inactive |
| UBXN2B | 1 | 0.592 | 93.7 | 0.166 | 100 | inactive |
| UBXN2B | 2 | 0.692 | 95.6 | 0.147 | 103 | inactive |
| UBXN2B | 3 | -0.576 | 70.4 | -1.38 | 113 | inactive |
| TESPA1 | 1 | 0.209 | 86 | 0.625 | 81.5 | inactive |
| TESPA1 | 2 | -1.02 | 61.6 | -0.315 | 74.9 | inactive |
| TESPA1 | 3 | -2.51 | 31.9 | -1.83 | 57.8 | inactive |
| AFAP1L2 | 1 | 0.393 | 89.7 | 0.623 | 85.1 | inactive |
| AFAP1L2 | 2 | -1.37 | 54.7 | -0.719 | 73.9 | inactive |
| AFAP1L2 | 3 | -1.91 | 43.9 | -1.11 | 65.9 | inactive |

The list goes on; the last 2 above are carried over.
| Gene | reagent | total luciferase, z-score | total luciferase, % of control | luciferase per cell, z-score | viable cells, % of control | Call |
| --- | --- | --- | --- | --- | --- | --- |
| AFAP1L2 | 2 | -1.37 | 54.7 | -0.719 | 73.9 | inactive |
| AFAP1L2 | 3 | -1.91 | 43.9 | -1.11 | 65.9 | inactive |
| DNAAF19 | 1 | -0.894 | 64.1 | 0.304 | 66.1 | inactive |
| DNAAF19 | 2 | -0.596 | 70 | -0.012 | 78.5 | inactive |
| DNAAF19 | 3 | 0.576 | 93.3 | 0.0233 | 104 | inactive |
| TTC36 | 1 | 0.744 | 96.7 | 0.143 | 104 | inactive |
| TTC36 | 2 | -0.00452 | 81.8 | 0.69 | 76.2 | inactive |
| TTC36 | 3 | 0.475 | 91.3 | 1.27 | 73 | inactive |
| ZC2HC1C | 1 | 0.593 | 93.7 | 0.874 | 83.2 | inactive |
| ZC2HC1C | 2 | -0.045 | 81 | -0.0758 | 92.3 | inactive |
| ZC2HC1C | 3 | 1.79 | 118 | 2.1 | 75.5 | inactive |
| NRBP1 | 1 | -0.899 | 64 | 0.137 | 69 | inactive |
| NRBP1 | 2 | -0.511 | 71.7 | -0.188 | 84.2 | inactive |
| NRBP1 | 3 | -0.977 | 62.5 | -0.844 | 87.2 | inactive |
